These are yes or no findings as the source states them, for the method shown. Binding seen in cells or lysates may run through a third protein. For some of these results: Binding can be weak; no strength is given. For some of these results: Sequences can lack the tags named with a protein.
What was measured:
Assay in all cases: co-IP; FLAG-tagged bait and HA-tagged prey expressed in S2 cells, harvested after 48-72 h; FLAG Immunoprecipitation kit; Western blot with anti-FLAG and anti-HA together
[1] = target: Drosophila Dnaaf4, FLAG-tagged (Drosophila melanogaster) (UniProt Q7JY49)
[2] = target: Drosophila Dnaaf6, FLAG-tagged (Drosophila melanogaster) (UniProt Q7JWU1)
[3] = target: Drosophila Hsp90, FLAG-tagged (Drosophila melanogaster) (UniProt P02828)
[4] = target: T1, mouse Dnaaf6, FLAG-tagged (mouse) (UniProt Q3KNI6)
T1 sequence: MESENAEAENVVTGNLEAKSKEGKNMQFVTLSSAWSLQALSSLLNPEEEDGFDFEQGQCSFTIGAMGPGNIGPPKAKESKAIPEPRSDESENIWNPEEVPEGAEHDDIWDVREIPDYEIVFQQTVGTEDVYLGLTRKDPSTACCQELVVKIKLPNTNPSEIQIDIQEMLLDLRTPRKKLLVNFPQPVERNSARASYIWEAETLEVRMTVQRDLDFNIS

Protein sequences, listed by entry. Tags and fused reporters are not part of them. Lines headed by an entry give the natural chain unless they say otherwise; changes in a name come on top.
UniProt Q7JY49: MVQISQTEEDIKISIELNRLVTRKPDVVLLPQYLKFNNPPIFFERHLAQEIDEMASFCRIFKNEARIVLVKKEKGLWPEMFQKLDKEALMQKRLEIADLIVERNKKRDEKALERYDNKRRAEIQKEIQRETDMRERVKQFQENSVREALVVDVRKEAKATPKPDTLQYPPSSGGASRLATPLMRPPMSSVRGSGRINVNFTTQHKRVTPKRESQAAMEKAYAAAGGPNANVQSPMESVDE
UniProt Q7JWU1: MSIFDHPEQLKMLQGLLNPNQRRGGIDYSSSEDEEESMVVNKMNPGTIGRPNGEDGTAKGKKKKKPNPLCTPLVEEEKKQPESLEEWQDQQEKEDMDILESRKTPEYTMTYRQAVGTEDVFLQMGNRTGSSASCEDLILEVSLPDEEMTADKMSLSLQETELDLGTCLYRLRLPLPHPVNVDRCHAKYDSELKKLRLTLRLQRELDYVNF
UniProt P02828: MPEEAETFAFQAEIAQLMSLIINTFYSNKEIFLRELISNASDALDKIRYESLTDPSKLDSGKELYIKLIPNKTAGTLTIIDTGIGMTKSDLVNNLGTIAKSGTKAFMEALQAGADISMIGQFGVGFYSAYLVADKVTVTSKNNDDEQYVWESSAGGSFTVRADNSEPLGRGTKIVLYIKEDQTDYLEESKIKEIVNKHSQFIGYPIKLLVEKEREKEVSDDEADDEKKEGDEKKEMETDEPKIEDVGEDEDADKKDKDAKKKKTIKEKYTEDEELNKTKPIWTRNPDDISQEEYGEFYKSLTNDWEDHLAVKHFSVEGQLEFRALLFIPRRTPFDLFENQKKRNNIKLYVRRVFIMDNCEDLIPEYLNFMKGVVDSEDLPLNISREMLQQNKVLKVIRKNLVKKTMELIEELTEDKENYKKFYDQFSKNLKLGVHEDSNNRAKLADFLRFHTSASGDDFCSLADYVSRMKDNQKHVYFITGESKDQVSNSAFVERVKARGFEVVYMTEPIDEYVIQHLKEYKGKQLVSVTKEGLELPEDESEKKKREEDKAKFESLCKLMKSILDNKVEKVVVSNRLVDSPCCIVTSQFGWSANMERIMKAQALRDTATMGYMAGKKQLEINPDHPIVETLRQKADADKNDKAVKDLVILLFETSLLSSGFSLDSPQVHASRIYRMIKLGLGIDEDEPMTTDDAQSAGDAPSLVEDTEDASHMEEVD
UniProt Q9VH07: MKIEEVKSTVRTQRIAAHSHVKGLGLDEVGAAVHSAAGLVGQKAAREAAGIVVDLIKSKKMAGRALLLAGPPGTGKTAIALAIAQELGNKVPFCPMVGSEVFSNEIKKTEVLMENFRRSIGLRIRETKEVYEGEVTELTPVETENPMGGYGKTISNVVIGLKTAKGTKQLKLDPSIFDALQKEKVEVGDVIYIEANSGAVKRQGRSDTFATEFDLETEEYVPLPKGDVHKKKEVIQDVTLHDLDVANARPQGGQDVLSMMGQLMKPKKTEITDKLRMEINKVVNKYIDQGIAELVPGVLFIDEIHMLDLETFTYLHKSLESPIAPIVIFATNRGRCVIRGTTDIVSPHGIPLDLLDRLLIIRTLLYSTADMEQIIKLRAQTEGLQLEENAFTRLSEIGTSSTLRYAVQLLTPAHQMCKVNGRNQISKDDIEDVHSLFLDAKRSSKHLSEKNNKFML
UniProt Q9V3K3: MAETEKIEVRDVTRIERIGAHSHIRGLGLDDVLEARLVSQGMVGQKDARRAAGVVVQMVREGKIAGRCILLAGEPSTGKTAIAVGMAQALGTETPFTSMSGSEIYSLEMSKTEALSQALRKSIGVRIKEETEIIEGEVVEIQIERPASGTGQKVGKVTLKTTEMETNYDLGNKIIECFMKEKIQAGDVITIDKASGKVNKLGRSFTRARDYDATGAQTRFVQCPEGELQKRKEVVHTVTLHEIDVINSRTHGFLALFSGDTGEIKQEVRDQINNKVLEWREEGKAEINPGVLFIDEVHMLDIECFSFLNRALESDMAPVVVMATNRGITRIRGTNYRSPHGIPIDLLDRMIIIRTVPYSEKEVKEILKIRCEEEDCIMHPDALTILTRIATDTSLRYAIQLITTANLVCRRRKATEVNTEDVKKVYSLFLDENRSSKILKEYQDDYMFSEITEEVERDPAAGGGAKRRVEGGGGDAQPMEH

binding [1] | binding [2] | binding [3] | binding [4] | Substance
binds | binds |  |  | Drosophila Pontin, HA-tagged (from UniProt Q9VH07 1-456)
 | binds | no binding | binds | Drosophila Dnaaf4, HA-tagged (from UniProt Q7JY49)
binds | binds |  |  | Drosophila Reptin, HA-tagged (from UniProt Q9V3K3 1-481)

Reference: paper PMC9298768
